Measurements as given in publication doi:10.1101/500736.
No constants are given. Whether binding was seen depends on the method and setting. Some binding calls cover weakened binding; strength is not graded here.

The chains behind the UniProt entries cited, without tags or fusion partners.
UniProt P17839: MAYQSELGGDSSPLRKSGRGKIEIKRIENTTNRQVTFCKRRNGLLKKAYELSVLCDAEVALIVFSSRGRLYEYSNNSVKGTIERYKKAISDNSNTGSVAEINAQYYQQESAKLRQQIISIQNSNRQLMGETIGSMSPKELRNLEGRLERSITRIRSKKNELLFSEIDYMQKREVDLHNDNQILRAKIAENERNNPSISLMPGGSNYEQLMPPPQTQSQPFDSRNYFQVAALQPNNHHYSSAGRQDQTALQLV
UniProt Q8W234: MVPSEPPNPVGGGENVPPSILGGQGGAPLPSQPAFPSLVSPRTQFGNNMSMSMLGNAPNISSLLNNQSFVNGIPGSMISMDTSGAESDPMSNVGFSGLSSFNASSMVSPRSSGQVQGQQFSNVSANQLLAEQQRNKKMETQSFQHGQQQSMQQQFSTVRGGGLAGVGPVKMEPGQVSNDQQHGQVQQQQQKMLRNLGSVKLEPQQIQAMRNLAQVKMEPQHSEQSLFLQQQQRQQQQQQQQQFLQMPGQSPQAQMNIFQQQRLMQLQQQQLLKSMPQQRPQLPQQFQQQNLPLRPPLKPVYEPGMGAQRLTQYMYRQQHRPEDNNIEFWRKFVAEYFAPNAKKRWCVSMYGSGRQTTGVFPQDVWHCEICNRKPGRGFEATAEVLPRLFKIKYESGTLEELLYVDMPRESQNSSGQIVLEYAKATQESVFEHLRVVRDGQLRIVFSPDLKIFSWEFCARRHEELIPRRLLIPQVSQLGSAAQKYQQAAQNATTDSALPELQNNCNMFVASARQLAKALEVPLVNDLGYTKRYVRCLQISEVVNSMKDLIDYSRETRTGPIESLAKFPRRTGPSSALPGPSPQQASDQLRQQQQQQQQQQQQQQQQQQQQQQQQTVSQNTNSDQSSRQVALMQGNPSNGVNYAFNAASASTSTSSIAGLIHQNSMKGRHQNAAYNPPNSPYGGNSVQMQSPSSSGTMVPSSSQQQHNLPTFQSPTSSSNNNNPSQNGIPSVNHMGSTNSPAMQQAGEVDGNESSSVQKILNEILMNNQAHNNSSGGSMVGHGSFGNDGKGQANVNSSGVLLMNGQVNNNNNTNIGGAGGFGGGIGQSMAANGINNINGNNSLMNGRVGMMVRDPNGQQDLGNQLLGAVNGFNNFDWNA

Columns and labels:
[1] = molecular target: …3 (Arabidopsis thaliana) (UniProt O22456); assay: two-hybrid
[2] = molecular target: T1, LUG (Arabidopsis thaliana) (UniProt Q9FUY2); assay: two-hybrid
T1 sequence: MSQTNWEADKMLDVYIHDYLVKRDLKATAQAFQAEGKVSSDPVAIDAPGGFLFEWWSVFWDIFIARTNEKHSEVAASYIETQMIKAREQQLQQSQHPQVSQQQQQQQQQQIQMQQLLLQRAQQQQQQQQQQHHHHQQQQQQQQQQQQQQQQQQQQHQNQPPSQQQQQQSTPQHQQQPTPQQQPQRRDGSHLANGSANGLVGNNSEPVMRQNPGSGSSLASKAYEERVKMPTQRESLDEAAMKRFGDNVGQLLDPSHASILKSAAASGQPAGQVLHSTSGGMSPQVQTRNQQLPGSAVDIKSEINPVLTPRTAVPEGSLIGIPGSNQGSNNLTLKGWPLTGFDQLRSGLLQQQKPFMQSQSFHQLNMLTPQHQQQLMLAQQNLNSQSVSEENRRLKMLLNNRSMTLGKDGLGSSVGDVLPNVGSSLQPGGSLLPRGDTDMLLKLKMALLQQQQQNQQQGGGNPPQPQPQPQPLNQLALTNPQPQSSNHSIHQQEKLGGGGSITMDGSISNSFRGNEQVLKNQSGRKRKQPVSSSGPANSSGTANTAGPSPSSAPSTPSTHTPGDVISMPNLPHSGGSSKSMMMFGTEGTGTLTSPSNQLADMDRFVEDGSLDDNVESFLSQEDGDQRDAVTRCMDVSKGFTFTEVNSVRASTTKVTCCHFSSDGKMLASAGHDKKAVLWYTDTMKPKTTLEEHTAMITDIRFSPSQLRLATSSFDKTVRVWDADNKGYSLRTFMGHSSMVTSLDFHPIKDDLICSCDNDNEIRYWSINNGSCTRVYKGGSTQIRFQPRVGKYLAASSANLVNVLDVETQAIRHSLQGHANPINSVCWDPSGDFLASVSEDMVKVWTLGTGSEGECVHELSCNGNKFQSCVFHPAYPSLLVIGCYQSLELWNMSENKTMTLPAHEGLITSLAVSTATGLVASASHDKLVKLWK

Row | binding [1] | binding [2] | Substance
1 | binds |  | AG (from UniProt P17839 1-252)
2 |  | binds | SEU (from UniProt Q8W234 1-877)
